# PubChem BioAssay AID1347421 (Sanford-Burnham Center for Chemical Genomics, 2020)
# Amino acid sequences for entries named in this document (tags omitted). A change or cut given only in a name is not applied to a line headed by its entry.
# UniProt O00391: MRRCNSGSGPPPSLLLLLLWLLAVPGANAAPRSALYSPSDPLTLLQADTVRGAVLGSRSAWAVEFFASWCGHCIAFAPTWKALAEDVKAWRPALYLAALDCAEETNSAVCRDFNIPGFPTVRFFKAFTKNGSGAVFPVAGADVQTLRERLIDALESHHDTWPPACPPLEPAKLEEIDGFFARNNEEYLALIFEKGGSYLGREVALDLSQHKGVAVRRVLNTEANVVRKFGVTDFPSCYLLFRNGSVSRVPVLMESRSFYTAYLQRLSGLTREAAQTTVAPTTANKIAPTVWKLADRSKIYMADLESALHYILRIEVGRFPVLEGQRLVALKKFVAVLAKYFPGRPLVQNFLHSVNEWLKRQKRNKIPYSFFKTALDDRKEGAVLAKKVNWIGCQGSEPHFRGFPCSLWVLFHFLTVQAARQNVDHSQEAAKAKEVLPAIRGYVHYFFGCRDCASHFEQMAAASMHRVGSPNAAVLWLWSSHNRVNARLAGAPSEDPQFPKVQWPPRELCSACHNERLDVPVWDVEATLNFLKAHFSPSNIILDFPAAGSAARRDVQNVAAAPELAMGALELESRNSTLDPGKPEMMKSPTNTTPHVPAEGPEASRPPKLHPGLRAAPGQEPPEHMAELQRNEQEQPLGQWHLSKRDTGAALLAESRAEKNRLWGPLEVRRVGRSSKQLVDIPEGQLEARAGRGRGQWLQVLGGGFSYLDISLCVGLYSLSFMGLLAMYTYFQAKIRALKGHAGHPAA
# Whole data set: some 1,500 compounds, median “activity” near 2, cut for the lowest 2% near -18. The list shows a part of the results. Calls of active or inactive are those of the source.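 The calls were made as follows: active = inhibition of at least 40% at 10 µM; inconclusive = no clear call, values can overlap the other calls; inactive = the rest.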
# Biological target: Sulfhydryl oxidase 1 (Homo sapiens) (UniProt O00391)
# Assay: human QSOX1 sulfhydryl oxidase inhibition – biochemical, ROS-Glo luminescence, single concentration, confirmation (AID 1347421);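 also: 0% = DMSO wells with enzyme and 100% = wells lacking QSOX1 enzyme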
# Conditions: recombinant hQSOX1, RNase A substrate, ROS-Glo H2O2 luminescence; at 10 µM
row,SMILES,activity
1,Cc1nnsc1C(=O)NC1CC(=O)N(CCc2ccccc2)C1 (centres undefined),2%
2,Cc1ccc(CN2CCN(Cc3ccc4c(c3)OCCO4)CC2CCO)o1 (centres undefined),inactive: -4.2%
3,COCCNC(=O)CCC1CCN(Cc2ccc3cc(Cl)ccc3n2)CC1,4.1%
4,CN(CCc1ccccn1)Cc1nc(-c2ccc3c(c2)OCO3)no1,4.2%
5,COc1ccc(CNCCNC(C)=O)cc1OCC(O)CN(C)Cc1ccccc1 (centres undefined),1.2%
6,COc1ccc(NC(=O)NC2CC(=O)N(CC(C)(C)C)C2)c(OC)c1 (centres undefined),inactive: -1.6%
7,C1=Nn2c(nnc2-c2ccncc2)SC(c2ccccc2)=C1,2.7%
8,O=C(Cc1cccc(Cl)c1)NC1CCCN(c2ncccn2)C1 (centres undefined),2.5%
9,CC(C)(C)NC(=O)CN1C(=O)CCC1=O,inactive: -0.4%
10,COc1ccccc1CCN1CCC(CN(C)C(=O)CCN2CCCO2)CC1,inactive: -1.9%
11,COc1ccc(N2CCN(C(=O)CNC(=O)c3ccc(Cl)cc3)CC2)cc1,inactive: -17.6%
12,Cc1ccc2c(C(=O)NC3CCN(C)C3=O)cc(-c3cnn(C)c3)nc2c1 (centres undefined),5.5%
13,CCn1ccnc1CN1CCCC(N(C)CCc2ccccc2)C1 (centres undefined),3.3%
14,Cc1cc(Br)c(S(=O)(=O)NCc2ccncc2)cc1C,3.4%
15,O=S(=O)(c1ccsc1)N1CCc2onc(-c3ccccc3)c2C1,inactive: -8.6%
16,O=C(NC1CCCN(C2CCCCCC2)C1)C1CCCC1 (centres undefined),9%
17,CC(=O)N1CCN(c2ncccc2CNCc2ccc(-c3ccco3)cc2)CC1,inactive: -3.4%
18,O=C(NC1CC(=O)N(Cc2cccc3ccccc23)C1)c1ccncc1 (centres undefined),8.9%
19,Cc1ccccc1CC(=O)NCC(C)C,inactive: -16%
20,Cc1cc(NC(=O)CSc2ccccc2N)ccc1Cl,inactive: -8%
21,CC(=O)c1cc(CC(=O)N2CCCC(CCC(=O)NC3CC3)C2)cs1 (centres undefined),1.3%
22,O=C(c1cn(Cc2ccc(Cl)cc2)nn1)N1CCCCCCC1,0.2%

row,SMILES,activity
1,COCCCn1c(CN2CCC(N3CCSCC3)CC2)cnc1S(C)(=O)=O,10.1%
2,COc1cccc(CN2CCCC(O)(CNC3CCCC3)C2=O)c1 (centres undefined),2.1%
3,CCN(CC)CCNCc1ccc(OCC(O)CN(C)C(C)C)c(OC)c1 (centres undefined),0.6%
4,O=C(CSc1ncccn1)N1CCc2onc(-c3ccc(Cl)cc3)c2C1,10.7%
5,COc1ccc(CNCc2ccc(C)o2)c(OCC(O)CN2CCCC2)c1 (centres undefined),2.2%
6,COc1cc(CNCCC(C)C)ccc1OCC(O)CN1CCOCC1 (centres undefined),4.7%
7,COC(=O)CCC(C)N1CCC(CCC(=O)N2CCN(c3ccccc3)CC2)CC1 (centres undefined),4.5%
8,Cc1nonc1N1CCN(Cc2cn[nH]c2-c2cc3ccccc3o2)CC1,7.6%
9,CN1CCC(C2CCN(Cc3cn[nH]c3C3CCCCC3)CC2)C1 (centres undefined),4.3%
10,CCN(CCn1cccn1)C(=O)C1CCC(=O)N(CCCc2ccccc2)C1 (centres undefined),inactive: -0.4%
11,Cc1cnc(C)c(N2C[C@H]3OC(=O)N(C4CCCC4)[C@H]3C2)n1,7.1%
12,Cc1nonc1CN(C)C(=O)c1cc(-c2cn[nH]c2)nc2cc(F)ccc12,6.1%
13,COc1cccc(-c2cnnc(NCCc3ccccc3F)n2)c1,7.9%
14,O=C(c1cc(F)ccc1F)C1CCCN(C(=O)C2=CCCC2)C1 (centres undefined),7.4%
15,COc1ccc(F)cc1S(=O)(=O)Nc1cccc(C)n1,inactive: -10.7%
16,CC(=O)NCC(=O)N1CCC2(CCCN(Cc3cccc(F)c3F)C2=O)C1 (centres undefined),1.7%
17,COc1ccccc1CNc1nc2c([nH]1)c(=O)n(C)c(=O)n2C,1%
18,COc1ccc(N2CCN(C(=O)c3ccc(-n4cnnc4)cc3Cl)CC2)cc1,inactive: -13.7%
19,CN(C)c1ccccc1C(=O)N1CCOC(Cc2cccc(F)c2)C1 (centres undefined),10%
20,CCCN1CCC(NC(=O)Nc2ccccc2Cl)CC1,inactive: -0.6%
21,CCC(COC)NC(=O)CCc1nnc(CCCCc2ccccc2)o1 (centres undefined),9.7%
22,C=C(C)CNCc1ccc(OCC(O)CN(C)C(C)C)c(OC)c1 (centres undefined),inactive: -0.7%

row,SMILES,activity
1,Cc1nc(-c2ccncc2)ncc1C(C)NC/C=C/c1ccco1 (centres undefined),6.2%
2,CCOC(=O)C1CCCN(Cc2c(C(=O)N3CCCCCCC3)nc3sccn23)C1 (centres undefined),4.4%
3,CSc1cccc(CN2CCC3(CCCN(CC4CC4)C3=O)C2)c1 (centres undefined),3.3%
4,Cc1ccc(S(=O)(=O)N2CCC(C(=O)N3CCN(c4ccccn4)CC3)CC2)cc1,inactive: -18.7%
5,COC(=O)[C@H](CC(C)C)NC(=O)CCc1nnc(COc2ccccc2)o1,5%
6,CN(CCO)Cc1cccc(OCC(O)CN2CCOCC2)c1 (centres undefined),inactive: -3.7%
7,O[C@@H]1CCN(Cc2nc(-c3ccc(C(F)(F)F)cc3)no2)C1,inactive: -4.2%
8,O=C1N(Cc2ccc(F)cc2)CCCC1(O)CNC1CCCC1 (centres undefined),active: 42.6%
9,C=C(C)CN(CC)Cc1ccc(OCC(O)CN2CCN(CC)CC2)c(OC)c1 (centres undefined),0.2%
10,COc1ccccc1Oc1ncccc1CNCC1CCOC1 (centres undefined),2.6%
11,COCCn1c(CN(C)C2CCOCC2)cnc1S(=O)(=O)CC(C)(C)C,4.3%
12,CCN(CC)CC(O)COc1cc(CNCCCn2ccnc2)ccc1OC (centres undefined),9.4%
13,O=C(C1CCN(Cc2nc(-c3ccc(Cl)cc3)no2)CC1)N1CCCCC1,inactive: -3%
14,COc1ccc(NC(C)=O)cc1NCC1(c2cccc(F)c2)CCOC1 (centres undefined),inactive: -0.7%
15,Cc1nonc1CC(=O)N1CCC(CCC(=O)N2CCN(c3ccccc3)CC2)CC1,11.2%
16,NC(=O)COc1ccc(S(=O)(=O)N2CCOCC2)cc1,inactive: -13.3%
17,CC1=C(C(=O)N2CCCC(C(=O)c3cccc(C(F)(F)F)c3)C2)OCCO1 (centres undefined),3.1%
18,COc1cc(CNc2nncc(-c3ccc(OC)cc3OC)n2)cc(OC)c1,9.6%
19,CCn1ccnc1CN1CCC(CCC(=O)Nc2ccccc2)CC1,3.9%
20,Cc1oc(-c2cccs2)nc1CN(C)C(C)c1cccs1 (centres undefined),2.7%
21,CCN(CC)S(=O)(=O)c1csc(C(N)=O)c1,4.7%
22,C1CCC(C2CCN(Cc3nc(C4CC4)no3)C2)CC1 (centres undefined),6.4%

row,SMILES,activity
1,CCS(=O)(=O)c1ncc(CN(C)CCc2cn[nH]c2)n1CCCc1ccccc1,0.5%
2,NCCCN(Cc1ccco1)C1CCCC1,4.8%
3,CC(=O)N1CCC(C(=O)Nc2ccc(Cl)cc2C(F)(F)F)CC1,inactive: -11.6%
4,Cc1nn(C)cc1CN(C)Cc1ccc(OCC(O)CN2CCCCC2)cc1 (centres undefined),0.9%
5,Cc1cccc(CN2CCN(Cc3nc(-c4ccc(C)s4)oc3C)CC2=O)c1,8.2%
6,CCC(C(=O)Nc1ccccc1C(=O)N1CCCC1)N(c1ccccc1)S(C)(=O)=O (centres undefined),2.4%
7,Cc1cccc(CN2CCCC(O)(CNCc3nc(C)cs3)C2=O)c1 (centres undefined),4.6%
8,CC(C)CN1CCC(C2CCN(C(=O)c3ccc(CN(C)C)o3)C2)CC1 (centres undefined),0.8%
9,COc1ccc(S(=O)(=O)N2CC(=O)Nc3ccccc32)cc1C,inactive: -6%
10,COc1ccc(F)cc1C(=O)C1CCCN(C(=O)/C=C/c2cnn(C)c2)C1 (centres undefined),0.1%
11,COc1ccc(CCN2CC(NC(=O)c3ccnn3C)CC2=O)cc1 (centres undefined),4.3%
12,CCOc1cccc(CN2CCCC(N3CCCC3)C2)c1O (centres undefined),1.7%
13,O=C(c1ccc(-c2ccccc2)cc1)C1CCCN(C(=O)CN2C(=O)CSC2=O)C1 (centres undefined),5.7%
14,CCNC(=O)N1CCCC(C(=O)c2ccc3cc(OC)ccc3c2)C1 (centres undefined),4.5%
15,CNCc1nc(C2=[C+]C=C(C)C=C2)no1,inactive: -7.9%
16,c1ccc(Cc2nc(-c3ccncc3)n[nH]2)cc1,1.3%
17,O=c1cnnc(N2CCCCC2)[nH]1,3.8%
18,COCCS(=O)(=O)c1ncc(CN(C)CCc2cn[nH]c2)n1Cc1ccccc1,3.7%
19,Cn1cnnc1SCCNC(=O)C1CCC(=O)N(CCCc2ccccc2)C1 (centres undefined),3.1%
20,COc1ccc(CN2CCCC(CCC(=O)N(C)C3CCN(C)CC3)C2)c2ccccc12 (centres undefined),inactive: -0.9%
21,O=C(Nc1ccc(Oc2ccccc2)nc1)C1CCCCN1C1CCOCC1 (centres undefined),inactive: -8.9%
22,COCCNC(=O)CCC1CCN(Cc2cccnc2)CC1,4.8%

# A second format for some results above.
row	SMILES	activity
21	CCN(CC)S(=O)(=O)c1csc(C(N)=O)c1	4.7%
8	CC(C)CN1CCC(C2CCN(C(=O)c3ccc(CN(C)C)o3)C2)CC1 (centres undefined)	0.8%
14	CCNC(=O)N1CCCC(C(=O)c2ccc3cc(OC)ccc3c2)C1 (centres undefined)	4.5%

# (cont.)

row,SMILES,activity
1,CC(C)n1cc(CN2CCc3onc(-c4ccccc4F)c3C2)cn1,3.4%
2,C=CCn1c(SCC(=O)NC(C)(C)C)nc2c1c(=O)n(C)c(=O)n2C,inactive: -14%
3,O=C(NCC1CCCO1)C1CCN(C2CCN(C(=O)c3cccc(F)c3)CC2)CC1 (centres undefined),8.1%
4,CCn1c(CN2CCCC2)nc2ccccc21,inactive: -5.8%
5,COc1cc(C(=O)NCc2ccccc2C)cc(OC)c1OC,6.2%
6,CCn1ncc(CN2CCN(CC3CCCCC3)C(CCO)C2)c1C (centres undefined),0.7%
7,Cc1ccc(CNCC2(O)CCCN(CC(C)(C)C)C2=O)o1 (centres undefined),inactive: -1.8%
8,CCN1CCCC1CN(CC1CCN(CCOC)CC1)C(=O)CCc1c(C)noc1C (centres undefined),2.5%
9,Cn1cc(CN2CCCC2c2ccc(C(=O)NCc3ccccn3)s2)cn1 (centres undefined),inactive: -1.7%
10,O=C(NCC(c1ccccn1)N1CCOCC1)c1cn(Cc2ccc(Cl)cc2)nn1 (centres undefined),7.8%
11,COc1ccc(N2CCN(C(=O)c3cccc(-n4cnnc4)c3)CC2)cc1,inactive: -22.3%
12,CCOc1ccc(Cl)cc1S(=O)(=O)NC(C)C,3.5%
13,FC(F)(F)c1ccccc1CN1CCCC(N2CCCC2)C1 (centres undefined),3.9%
14,O=C(c1ccc2nc(Cc3cccc(Cl)c3)oc2c1)N1CC[C@H](O)C1,inactive: -6.2%
15,O=C(NCCCOc1cccnc1)C1CCC(=O)N(CCCN2CCOCC2)C1 (centres undefined),4.2%
16,O=C(Cn1cncn1)N1CCC(C2CCN(Cc3ccc(Cl)cc3)C2)CC1 (centres undefined),0.5%
17,COc1ccccc1CCC(=O)N1CCOC(Cc2cccc(F)c2)C1 (centres undefined),3%
18,COc1ccccc1CCN1CCC(CN(C)C(=O)C2CCOC2)CC1 (centres undefined),1.8%
19,CN1CCC(N2CCCC(NC(=O)c3ccc(F)cc3Cl)C2)CC1 (centres undefined),4.3%
20,O=C(c1ccc(=O)[nH]c1)N1CCOC(CC2CCCCC2)C1 (centres undefined),5.5%
21,O=C(CC1C(=O)NCCN1Cc1cccnc1)NCCCn1ccc2ccccc21 (centres undefined),3.3%

# Individual results from above:
# Entry for O=c1cnnc(N2CCCCC2)[nH]1 under activity: 3.8%
# Entry for C1=Nn2c(nnc2-c2ccncc2)SC(c2ccccc2)=C1 under activity: 2.7%
# Entry for Cc1nonc1CN(C)C(=O)c1cc(-c2cn[nH]c2)nc2cc(F)ccc12 under activity: 6.1%
# Entry for C=C(C)CN(CC)Cc1ccc(OCC(O)CN2CCN(CC)CC2)c(OC)c1 (centres undefined) under activity: 0.2%
# Entry for COc1ccc(S(=O)(=O)N2CC(=O)Nc3ccccc32)cc1C under activity: inactive: -6%
